Values from PubChem BioAssay AID1053208 (Peter MacCallum Cancer Centre, 2014)
Screen: 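Synthetic lethal interactions between gene loss and doxorubicin in osteosarcoma cells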 (primary screen). System: mouse osteosarcoma cells, early-passage culture from an engineered mouse model of fibroblastic bone tumour. Reagent: siRNA pool against mouse genes, 40 nM. Time to read-out: about 120 h (48 h before drug, then 72 h with drug). Treatment: doxorubicin 100 nM for 72 h, roughly 30-40% inhibitory dose. Measured: 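Luminescent ATP signal taken as viability with or without 100 nM doxorubicin for 72 h; mean of two wells set against non-targeting siRNA and turned into robust z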. Direction: viability z-score with doxorubicin and doxorubicin viability vs non-targeting: higher = more viable cells under doxorubicin; viability z-score without drug: higher = more viable cells with knock-down alone; z-score of drug to no-drug ratio: higher = less drug sensitisation by knock-down. Hit rule: 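Called active if knock-down leaves viability unchanged without drug (z within -2 to 2) but lowers it with doxorubicin (z at or under -2)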.
The whole screen tested about 17,000 reagents; below is a part drawn at random. Of all reagents, 788 (4.7%) were called active. 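Calls rest on z-score classes alone; an extra cut-off of viability at most 70% of control was not applied to them.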 A number with no mark means an inactive call.

| gene | PubChem SID | combined z-score class | viability z-score with doxorubicin | viability z-score without drug | z-score of drug to no-drug ratio | doxorubicin viability vs non-targeting |
| --- | --- | --- | --- | --- | --- | --- |
| Tcp10b | SID152263006 | no change with or without drug | -0.22 | -0.84 | 0.45 | 0.92 |
| Mcptl | SID152299714 | no change with or without drug | -1.35 | -1.18 | -0.56 | 0.82 |
| Gm5134 | SID152291141 | high cell count with doxorubicin only | 2.25 | 0.17 | 2.36 | 1.14 |
| Zfp385b | SID152279036 | high cell count without drug only | 1.12 | 2.7 | -0.45 | 1.04 |
| Dclk2 | SID152339582 | no change with or without drug | 0 | -0.84 | 0.67 | 0.94 |
| Krtap9-1 | SID152260041 | low cell count with doxorubicin only (active) | -2.02 | -1.18 | -1.35 | 0.76 |
| Trim45 | SID152308774 | high cell count with doxorubicin only | 2.02 | 0.51 | 1.8 | 1.12 |
| 1700028K03Rik | SID152292598 | no change with or without drug | -1.46 | 0.51 | -1.69 | 0.81 |
| Rrp7a | SID152289417 | no change with or without drug | 1.24 | 1.85 | 0.11 | 1.05 |
| Bid | SID152288737 | high cell count with doxorubicin only | 3.15 | 0.84 | 2.7 | 1.22 |
| Mgat4e | SID152298539 | high cell count with and without drug | 2.02 | 2.19 | 0.67 | 1.12 |

An excerpt from above, limited to “z-score of drug to no-drug ratio”:
Mcptl [SID152299714] = -0.56
Gm5134 [SID152291141] = 2.36

More records follow:
| gene | PubChem SID | combined z-score class | viability z-score with doxorubicin | viability z-score without drug | z-score of drug to no-drug ratio | doxorubicin viability vs non-targeting |
| --- | --- | --- | --- | --- | --- | --- |
| Irf2 | SID152312110 | no change with or without drug | 0.45 | -0.34 | 0.79 | 0.98 |
| Mycs | SID152312578 | no change with or without drug | -0.45 | -0.17 | -0.22 | 0.9 |
| Gfra1 | SID152324751 | no change with or without drug | 0.22 | -0.51 | 0.67 | 0.96 |
| Camk2d | SID152325835 | no change with or without drug | 0.34 | -0.51 | 0.79 | 0.97 |
| Pskh1 | SID152276069 | no change with or without drug | -1.01 | 0.17 | -1.01 | 0.85 |
| P4ha3 | SID152262595 | no change with or without drug | 0.34 | 0 | 0.45 | 0.97 |
| Agpat1 | SID152288704 | no change with or without drug | -0.9 | -0.84 | -0.22 | 0.86 |
| C630004L07Rik | SID152332633 | no change with or without drug | 0.45 | 1.35 | -0.34 | 0.98 |
| Hnrnph1 | SID152341125 | no change with or without drug | 0.67 | 0 | 0.79 | 1 |
